According to PubChem BioAssay AID623959 (National Center for Advancing Translational Sciences (NCATS), 2012):
Hit rate of the full screen: of about 1,400 compounds, fewer than 10 were called active. About 8% were inconclusive and are not listed. Calls come from the whole dose curve; as a rule, active = well fitted curve in the direction sought with a large enough effect; inconclusive = small, poorly fitted or top-dose-only effect, or another doubt; inactive = no such curve, though single readings can be large or run the other way. Some of the results follow.

Protein sequences, listed by entry. Tags and fused reporters are not part of them.
UniProt Q8NER1, whole entry, looked up: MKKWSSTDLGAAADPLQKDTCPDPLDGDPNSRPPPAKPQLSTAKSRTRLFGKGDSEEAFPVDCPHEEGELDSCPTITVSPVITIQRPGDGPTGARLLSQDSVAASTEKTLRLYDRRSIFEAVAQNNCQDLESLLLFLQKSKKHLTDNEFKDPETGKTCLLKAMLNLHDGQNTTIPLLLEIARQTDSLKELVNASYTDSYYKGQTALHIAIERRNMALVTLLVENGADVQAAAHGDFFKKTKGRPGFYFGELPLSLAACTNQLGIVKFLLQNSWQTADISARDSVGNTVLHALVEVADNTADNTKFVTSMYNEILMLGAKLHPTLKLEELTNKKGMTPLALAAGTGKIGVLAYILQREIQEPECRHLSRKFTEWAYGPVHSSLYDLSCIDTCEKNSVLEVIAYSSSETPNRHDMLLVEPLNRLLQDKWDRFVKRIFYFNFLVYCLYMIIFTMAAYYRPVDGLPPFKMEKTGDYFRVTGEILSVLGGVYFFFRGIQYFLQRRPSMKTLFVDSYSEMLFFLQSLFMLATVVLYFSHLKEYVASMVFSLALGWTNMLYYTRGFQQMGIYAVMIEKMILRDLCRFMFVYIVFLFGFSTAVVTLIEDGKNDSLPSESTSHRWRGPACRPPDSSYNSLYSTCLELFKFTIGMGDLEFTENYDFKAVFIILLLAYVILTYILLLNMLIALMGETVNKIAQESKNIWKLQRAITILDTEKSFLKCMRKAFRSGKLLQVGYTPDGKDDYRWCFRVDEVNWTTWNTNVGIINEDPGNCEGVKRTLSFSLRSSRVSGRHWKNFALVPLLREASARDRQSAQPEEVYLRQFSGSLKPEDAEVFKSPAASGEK

These molecules were tested against Transient receptor potential cation channel subfamily V member 1 (Homo sapiens) (UniProt Q8NER1) (assay: qHTS Assay for Compounds that Act as Potentiators of the Vanilloid Receptor 1: Hit Validation). Settings: TRPV1-expressing cells, Fluo-8 calcium influx, capsaicin EC20; series mostly up to 42.1 µM; activity change, positive = potentiation: at the top concentration.
Summary of the method: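 TRPV1 cells (2000/well, overnight 35.5 °C) loaded with Fluo-8 calcium dye 40–90 min at room temperature. FDSS fluorescence (ex 480/em 520 nm) read 3 min after compound, then 2 min after capsaicin at EC20.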
Note: % of control where 0% means no effect.

Activity change, positive = potentiation, inactive:
COc1ccc2[nH]c3nc(SCC(=O)Nc4cccc(NC(C)=O)c4)nnc3c2c1 3.38%
O=C(COC(=O)C12CC3CC(CC(C3)C1)C2)Nc1ccc2[nH]c(=O)[nH]c2c1 -4.81%
COc1ccc(CNC(=S)NCc2ccc(Cl)cc2)cc1OC -37.6%
COC(=O)[C@@]12CCCN1[C@H](c1ccc(-c3ccc(OC)cc3)cc1)[C@@H]1C(=O)N(C)C(=O)[C@@H]12 -7.31%
C/C(=N\NC(=O)c1ccncc1)c1cccc(NC(=O)c2ccc(C(C)(C)C)cc2)c1 -20.7%
CC(C)(C)c1ccc(/C=C/C(=O)Nc2ccncc2)cc1 -38.6%
Cc1ccc(S(=O)(=O)N2CCCCC2)cc1C(=O)NC1CCCCC1 -4.45%
Cn1c(=O)[nH]c(=O)c2c1nc(Br)n2CCCSc1nc2ccccc2o1 -6.26%
CCc1ccc(Nc2n[n+](-c3ccccc3)c(-c3cccc(Cl)c3Cl)s2)cc1 -3.66%
Cc1c(C(=O)Nc2ccncc2)sc2nc(-c3ccccc3)cn12 -36.5%
Cn1cnnc1SCC(=O)N1N=C(c2ccc(Cl)cc2)CC1c1ccco1 (stereo not drawn) -12.8%
Cc1cc(C)cc(-n2nnn(C3C/C(=N/NC(N)=S)C4OCC3O4)c2=S)c1 (stereo not drawn) -2.49%
CCOC(=O)c1ccc(NC(=O)c2cc3c(s2)CCC3)cc1 -38.3%
COCCNC(=O)CCCCCN1C(=O)CCC1=O 3.96%
N/C(=N\OC(=O)c1cccs1)c1ccc(Cl)cc1 -5.53%
COc1cc(CN(C)CC(=O)c2[nH]c(C)c(C(C)=O)c2C)ccc1OC(F)F 11%
Nn1c(Cc2ccccc2F)nnc1SCn1nnc2ccccc2c1=O -3.91%
O=C(CSc1ccc2nnc(-c3ccccc3)n2n1)NCC1CCCO1 (stereo not drawn) -10.8%
COc1ccc(CNCc2c(O)c(Cl)cc3c(C)c(C)c(=O)oc23)c(OC)c1 -8.72%
O=C(O)CCC(=O)N1N=C(c2ccco2)CC1c1ccco1 (stereo not drawn) -5.94%
Nc1ccc(Oc2ccc(Cl)cc2)cc1 -6.86%
Cc1ccc(NC(=O)c2ccc(S(=O)(=O)N3CCCC3)cc2)nc1 -32.8%
CCC(C)c1ccc(NC(=S)NCc2ccccc2OC)cc1 (stereo not drawn) -38.1%
COc1cccc(NC(=O)n2nc(N)cc2-c2ccc(Cl)cc2)c1 -9.25%
CC(=O)Nc1c(O)nc(SCC(=O)N2CCN(c3ccc(F)cc3)CC2)[nH]c1=O -1.02%
O=C(Nc1ccccc1)C1C(c2ccccc2)C1(Cl)Cl (stereo not drawn) -34.5%
Cc1cc2cc(CNC(=S)NC3CCCCC3)ccc2[nH]1 8.09%
Cc1cc(C)c(OCC(=O)Nc2nnc(-c3ccco3)o2)c(C)c1 -7.22%
Cc1ccc(C)c(N=Nc2ccc(O)c3ncccc23)c1 -9.28%
Cc1c(OCC(=O)N2CCC(C(N)=O)CC2)ccc2c1oc(=O)c1ccccc12 -36.7%
COC(=O)c1nnn(CC(=O)Nc2ccc(C)c(F)c2)c1C(=O)OC 8.85%
CCCCOc1ccc(C(=O)Nc2cccc(-n3cnnn3)c2)cc1OC -34.7%
CCc1c(C)sc(NC(=O)c2cc(C)no2)c1C#N -3.05%
CCN(CCCNC(=O)c1cn(CC)c2ccc(S(=O)(=O)N(C)C)cc2c1=O)c1cccc(C)c1 -37.6%
CCOc1cc(C(=O)OCC(=O)Nc2ccc(SC(F)F)cc2)cc(OCC)c1OCC -24.8%
O=C(Nc1ccc(-n2cccc2)cc1)C1CC1 -2.93%
Cc1cc2oc(C(=O)Nc3cccnc3)c(C)c2cc1C -38%
COC(=O)c1cccc(NC(=O)c2ccc3c(c2)C(=O)N(C(C)(C)C)C3=O)c1 -28%
COC(=O)c1ccc(-c2nc(CN3CCC(C(=O)N4CCOCC4)CC3)c(C)o2)cc1 1.75%
O=C(O)c1ccc(NCc2cccnc2)c([N+](=O)[O-])c1 -4.5%
O=C(Cc1ccccc1)Nc1nc(-c2cccs2)cs1 -36.1%
COc1cccc(CNCc2cc(OC)cc(OC)c2)c1 -4.28%
CC(C)NC(=O)COC(=O)c1ccc(O)cc1 -9.92%
COc1cc(C2c3sc(=O)[nH]c3SC3C4CCC(C4)C23)ccc1O (stereo not drawn) -3.36%
Brc1ccc2nc(-c3c[nH]c4ccccc34)cn2c1 -4.48%
O=C(N/N=C/c1ccccc1)c1ccc(NC(=O)c2ccc(F)cc2)cc1 -7.18%
CCCCc1ccc(NC(=O)Nc2cccnc2)cc1 -36.5%
CC(C)(C)c1ccc(OCc2ccc(C(=O)NN)o2)cc1 -30.2%
Cc1ccccc1NC(=O)CSc1nnc(Cc2ccccc2)c(=O)n1N -1.47%
CCOc1ccc(NC(=O)c2cccc3ccccc23)cc1 -11.4%
CC1=C(C(=O)OCC2CCCO2)C(c2ccc(C)o2)C2=C(CC(c3ccc(F)cc3)CC2=O)N1 (stereo not drawn) 3.36%
O=C(Cn1c(NCCCO)nc2ccccc21)c1ccc(Cl)cc1 -7.03%
COc1cc(NC(=S)NCc2ccc(S(N)(=O)=O)cc2)cc(OC)c1 -24.7%
COc1cccc(OCC(=O)Nc2cc(NC(=O)COc3cccc(OC)c3)cc(C(=O)O)c2)c1 4.12%
CC1(c2ccc(OC(F)F)cc2)NC(=O)N(CC(=O)Nc2ccc3[nH]c(=O)[nH]c3c2)C1=O (stereo not drawn) -0.778%
COc1ccc(S(=O)(=O)N2CCC(NC(=O)c3cccc(F)c3)CC2)cc1 4.05%
COc1ccc(/C=C2/SC(=S)N(NS(=O)(=O)c3ccccc3)C2=O)cc1 -1.57%
Cc1cc(C)c(C(=O)N2CCCC(Nc3ccc(C)c(C)c3)C2)o1 (stereo not drawn) -38.2%
Cc1nn(C)c(C(=O)Nc2ccc(S(=O)(=O)NC34CC5CC(CC(C5)C3)C4)cc2)c1Br -0.96%
CCN1N=C(c2ccccc2)Cn2c1nc1ccccc12 -40%
O=C(Cc1cccs1)Nc1cccc(-c2nnc(-c3ccco3)o2)c1 -4.78%
O=C1NNC(c2ccccc2)=N/C1=C\c1ccccc1Cl -5%
O=C(Nc1ccc2c(c1)CCC2)c1cccc(F)c1 -37.6%
CCN(CC)c1ccc(/C=N/NS(=O)(=O)c2ccc(CNC(C)=O)cc2)cc1 -7.02%
Cc1cc(C(=O)N2CCCC(C(=O)c3ccc(Oc4ccccc4)cc3)C2)n[nH]1 (stereo not drawn) -8.31%
c1ccc(CSC2=NNC(c3ccccn3)S2)cc1 (stereo not drawn) -9.69%
COc1ccc(C(=O)Nc2ccc3ncccc3c2)cc1 -33.5%
Cc1c(/C=C(\C#N)C(=O)NCc2ccccc2)cc(C#N)n1C 2.38%
O=C(C[C@H]1C(=O)N(C2CCCCC2)C[C@@H]1Cc1ccccc1)Nc1ccccc1 -36.6%
COC(=O)c1sccc1NC(=O)c1c(Cl)cccc1Cl -16.2%
CN1CCC(=NNC(=O)CN(c2cccc(Br)c2)S(C)(=O)=O)CC1 -5.86%
Cc1c(=O)n(OCc2ccccc2F)c2ccccc2[n+]1[O-] 0.445%
Cc1sc2ncnc(N)c2c1C -6.4%
Cc1cc(C)cc(Oc2nc3ccccn3c(=O)c2/C=C(\C#N)C(=O)NC2CCS(=O)(=O)C2)c1 (stereo not drawn) -10.1%
Cc1cnc(NC(=O)c2cc3c(s2)CCCC3)s1 -38.8%
CC(c1ccccc1)C1CC(=O)N(c2ccccc2)C1=O (stereo not drawn) -7.44%
CCOc1ncccc1C(=O)NCCc1ccc(Cl)cc1 -18.1%
COC(=O)c1cccnc1-n1c(=O)c2cccnc2n(CC(=O)Nc2ccc(Br)cc2)c1=O -4.44%
CC(C)NC(=S)Nc1ccc2nc3n(c(=O)c2c1)CCCCC3 6.34%
CCOC(=O)c1c(NC(=O)COC(=O)c2ccccn2)sc(C(=O)N(C)C)c1C 8.21%
CCCc1nnc(NC(=O)CC(C)c2ccccc2)s1 (stereo not drawn) -4.64%
CN1CCN(S(=O)(=O)c2ccc(NC(=O)c3ccc(F)cc3)cc2)CC1 -2.3%
COc1cccc(OC)c1C(=O)NCCOc1cc(C)cc(C)c1 3.41%
Cc1cc(C)nc(SC(C)C(=O)O)n1 (stereo not drawn) -3.04%
O=C(CCCCCn1c(=S)[nH]c2cc3c(cc2c1=O)OCO3)N1CCN(c2ccc(F)cc2)CC1 -8.32%
Cc1ccc(-c2c(C(=O)N/N=C/c3ccoc3)nnn2-c2nonc2N)cc1 -32.2%
CCOc1ccc(Nc2nc(Cc3nnc(SCC(N)=O)o3)cs2)cc1 5.63%
CN(CCc1ccccc1)C1CCCN(S(=O)(=O)CC(F)(F)F)C1 (stereo not drawn) -8.12%
O=C(COc1ccccc1)NCCS(=O)(=O)N1CCN(c2ccccc2)CC1 -8.44%
CCOc1ccccc1C(=O)Nc1ccc(-n2nncc2C(C)(C)C)cc1 -6.71%
COc1cccc(/C=C/C(=O)OCC(=O)Nc2cc(C(F)(F)F)ccc2Cl)c1 6.89%
CCCc1cc(=O)n2[nH]cc(-c3ccc(Cl)cc3)c2n1 4.52%
CN(/C(=N\S(=O)(=O)c1ccccc1)c1ccccc1)c1ccc(O)cc1 -5.44%
COc1cccc(OC)c1C(=O)Nc1ccc(S(=O)(=O)Nc2ncccn2)cc1 -1.46%
Cc1cc(/C=C2\Cc3ccccc3C2=O)c(C)n1-c1ccccc1 -38.9%
O=C(Nc1ncc([N+](=O)[O-])s1)C1CCN(S(=O)(=O)c2cnc[nH]2)CC1 -3.47%
CC(C)(C)NC(=O)Cn1nnc(-c2ccccc2NC(=O)c2cnccn2)n1 6.2%
O=C(Nc1ccc(Cl)c(Cl)c1)C1=Cc2ccccc2OC1 -38.5%
O=S(=O)(c1cc(Cl)ccc1Cl)N1CCN2CCCC2C1 (stereo not drawn) -9.92%
Cc1ccc(N2C(=O)C3N=NN(CC(=O)N4N=C(c5ccccc5)CC4c4ccccc4)C3C2=O)cc1 (stereo not drawn) -1.79%
Cc1[nH]c2ccc(-c3nnc(SCC(=O)c4ccc(F)cc4)o3)cc2c1C 0.257%
COc1ccc(-c2cc(C)no2)cc1S(=O)(=O)NCC(C)c1ccccc1 (stereo not drawn) 0.097%
COc1ccc(OC)c(-c2[nH]nc3c2C(c2ccco2)C(C#N)=C(N)O3)c1 (stereo not drawn) 0.39%
CCN1/C(=C(\O)c2ccccc2)C(=O)c2ccccc2S1(=O)=O -2.36%
C=C(C)C(=O)Nc1cccc(C2=NOC3(C2)C[C@H](C(N)=O)N(C(=O)c2ccccc2C(=O)c2ccccc2)C3)c1 (stereo partly drawn) -6.85%
Cc1c(Cl)ccc2sc(NC(=O)c3ccco3)nc12 -36%
O=C(NCc1n[nH]c(=S)n1-c1cccc(Cl)c1)c1ccc(S(=O)(=O)N2CCCCC2)cc1 3.77%
CCC(C)NC(=O)C1CCC(=O)N1CCc1ccccc1 (stereo not drawn) 1.19%

6 compounds out of the list, ordered by molar mass, descending:
Activity change, positive = potentiation, inactive:
O=C(CCCCCn1c(=S)[nH]c2cc3c(cc2c1=O)OCO3)N1CCN(c2ccc(F)cc2)CC1 -8.32%
CC1=C(C(=O)OCC2CCCO2)C(c2ccc(C)o2)C2=C(CC(c3ccc(F)cc3)CC2=O)N1 (stereo not drawn) 3.36%
COc1cccc(OC)c1C(=O)Nc1ccc(S(=O)(=O)Nc2ncccn2)cc1 -1.46%
CCN(CC)c1ccc(/C=N/NS(=O)(=O)c2ccc(CNC(C)=O)cc2)cc1 -7.02%
COC(=O)c1cccc(NC(=O)c2ccc3c(c2)C(=O)N(C(C)(C)C)C3=O)c1 -28%
COC(=O)c1sccc1NC(=O)c1c(Cl)cccc1Cl -16.2%
